Where a chain is given by its changes, count along the chain named. Results are given in words; binding and its absence hold for the method and conditions named. Some results given as binding are weak or reduced against the parent protein; the word gives no strength.

Protein sequences, listed by entry. Tags and fused reporters are not part of them. Lines headed by an entry give the natural chain unless they say otherwise; changes in a name come on top.
UniProt P01848: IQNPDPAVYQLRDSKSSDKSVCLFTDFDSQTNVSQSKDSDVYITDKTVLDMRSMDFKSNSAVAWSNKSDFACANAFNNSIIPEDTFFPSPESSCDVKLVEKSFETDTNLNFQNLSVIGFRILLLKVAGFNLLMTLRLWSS
UniProt P01850: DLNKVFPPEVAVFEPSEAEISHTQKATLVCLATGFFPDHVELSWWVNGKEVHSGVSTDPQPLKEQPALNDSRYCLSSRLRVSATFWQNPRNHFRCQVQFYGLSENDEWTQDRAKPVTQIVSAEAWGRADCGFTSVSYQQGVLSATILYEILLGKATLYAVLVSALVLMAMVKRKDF

Assay [1] addresses T1, T cell receptor alpha/beta on purified primary human T cells (human) (UniProt P01848+P01850). As to the kind of experiment: flow cytometry on purified primary human T cells, MCF [cont'].
Assay [2] deals with soluble recombinant cynomolgus TCR alpha/beta-zipper protein (cynomolgus/rhesus monkey). As to the kind of experiment: ELISA, coated soluble cynomolgus TCR-zipper.
Assay [3] concerns the target T1, T cell receptor alpha/beta on purified primary human T cells (human). Nature of the assay: flow cytometry, purified primary human T cells.
Assay [4] addresses soluble recombinant cynomolgus TCR alpha/beta-zipper protein (cynomolgus/rhesus monkey). As to the kind of experiment: BLI (Octet RED384), cynomolgus TCR α/β-zipper on the sensor, Nanobody as analyte.
For assay [5], the target named is T1, T cell receptor alpha/beta on purified primary human T cells (human). Nature of the assay: flow cytometry on purified primary human T cells, MCF.
For assay [6], the target named is soluble recombinant cynomolgus TCR alpha/beta-zipper protein (cynomolgus/rhesus monkey). Nature of the assay: ELISA, 2 µg/ml directly coated soluble recombinant cynomolgus TCR α/β-zipper protein, OD 450 nm.

B1: T0170061G01 (VHH, not shown: small tags and cut ends)
VHH: EVQLVESGGGLVQPGGSLRLSCAASGEIGRINFYRWYRQAPGNQREVVATITIADKTDYADSAKGRFTISRDESRNMVYLQMSSLKPEDTAVYFCHAGSRLYPYDYWGQGTQVTVSS
For the molecule B1, the binding entry in assay [1] is on record as “binds”; in assay [2], “no binding (tested: >1E7 (M, as printed))”; in assay [3], “binds”.

B2: T0170055A02 (VHH, not shown: small tags and cut ends)
VHH: EVQLVESGGGLVQPGGSLRLSCAASGDVHKINILGWYRQAPAKEREMVAHITIGDATDYADSAKGRFTISRDEAKNMVYLQMNSLKPEDTAVYFCRAYSRIYPYNYWGQGTLVTVSS
With B2, the binding result in assay [4], in assay [5], in assay [6], in assay [2] and in assay [3] was “binds” each time.

B3: T0170056G05 (VHH, not shown: small tags and cut ends)
VHH: B2 VHH with A23V, I33F, A42G, M47K, T52S, A56Q, A74S, Y98F, N105D
Turning to B3, the binding result in assay [4], in assay [6] and in assay [2] was “binds” each time.

B4: T0170068G05 (VHH, not shown: small tags and cut ends)
VHH: VQLVEESGGGLVQPGGSLRLSCITSGETFKINIWGWYRQAPGKQRELVASLTIGGATNYADSVKGRFTISEDSAKNTVYLQMNSLKPEDTAVYFCNAKSRIYPYDYWGRGTQVTVSS
In the case of B4, the binding entry in assay [1], in assay [6], in assay [2] and in assay [3] was “binds” throughout.

Source of the values: US20190112392A1.
